Data taken from PMC9430589.
Results are given in words; binding and its absence hold for the method and conditions named. In cells and extracts the contact can be indirect. Sequences can lack the tags named with a protein.

Biological target: T1, C-terminus His6-tagged PNPase (polynucleotide phosphorylase, DR_2063) of D. radiodurans (D. radiodurans) (UniProt Q9RSR1)
T1 sequence: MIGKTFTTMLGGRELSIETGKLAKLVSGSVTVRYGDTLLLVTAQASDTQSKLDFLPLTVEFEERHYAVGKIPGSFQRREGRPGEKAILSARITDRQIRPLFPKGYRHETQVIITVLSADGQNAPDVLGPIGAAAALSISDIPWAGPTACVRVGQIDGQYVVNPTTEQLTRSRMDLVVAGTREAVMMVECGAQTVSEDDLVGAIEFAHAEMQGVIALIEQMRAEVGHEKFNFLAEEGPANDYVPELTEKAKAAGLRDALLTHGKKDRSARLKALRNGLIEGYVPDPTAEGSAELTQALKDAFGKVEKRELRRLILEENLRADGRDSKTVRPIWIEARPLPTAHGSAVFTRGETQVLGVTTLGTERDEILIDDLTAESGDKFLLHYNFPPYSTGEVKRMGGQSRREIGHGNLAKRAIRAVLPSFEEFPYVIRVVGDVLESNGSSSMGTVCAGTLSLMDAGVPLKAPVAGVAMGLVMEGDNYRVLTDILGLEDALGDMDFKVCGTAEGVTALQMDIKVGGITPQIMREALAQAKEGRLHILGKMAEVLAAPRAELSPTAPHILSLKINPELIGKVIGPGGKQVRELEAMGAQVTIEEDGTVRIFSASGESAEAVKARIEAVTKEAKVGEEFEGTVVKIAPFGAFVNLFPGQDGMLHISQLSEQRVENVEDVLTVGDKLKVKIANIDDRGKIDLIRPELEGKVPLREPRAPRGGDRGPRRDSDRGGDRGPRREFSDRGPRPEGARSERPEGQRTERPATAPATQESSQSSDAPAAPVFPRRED
Test: co-IP; C-terminal His6-tagged PNPase from pRADgro as bait in D. radiodurans strains with chromosomal 3×FLAG-tagged RhlB, RpsA or Rho; formaldehyde cross-linking, sonication; 500 μg lysate treated with or without RNase A and T1, then Ni-NTA magnetic beads; Western blot with anti-FLAG antibody; His6 tag alone as control

B1: Rho-3×FLAG (chromosomally tagged transcription termination factor Rho, DR_1338) (protein, UniProt P52153 1-426)
chain: MTVTEVAPQALPFQELQEKILPELHLLAAGLGIENYRKLKKDALALAIMEKQADAEGQSLARGYLDITSDGYGFLQADLLDPASRSVLVTAGVIKQYHLRTGDEVIGRARKPRENERYGSLVRVEAVNGLDPEAARQRPRFDDLTPTFPDQQLVLEDPSTDDGLSLRVVDLLVPIGRGQRALIVAPPKAGKTTLLKKIANSITKNYPDVTVMVLLVDERPEEVTDFRESVQGAQVIASTFDEPPQHHVRVAEFVHERARRIVEEGGHVVILLDSITRLARANNLVTPPTGRTLSGGLDSNALHWPKRFLGAARNIREGGSLTILATALVETGSRMDDVIFEEFKGTGNAELVLSRRLEERRIFPALDILKSGTRREELLLQPEVLKKMWLLRKVISDMDPADAMEMLLGRMGKTRNNVEFLAALAG
- binding: no binding
